The text below walks through data of article doi:10.1101/2025.11.30.691455.

The chains behind the UniProt entries cited, without tags or fusion partners. Where a name states a change or a piece, a line headed by the entry shows the natural chain unless it says otherwise.
UniProt Q13283: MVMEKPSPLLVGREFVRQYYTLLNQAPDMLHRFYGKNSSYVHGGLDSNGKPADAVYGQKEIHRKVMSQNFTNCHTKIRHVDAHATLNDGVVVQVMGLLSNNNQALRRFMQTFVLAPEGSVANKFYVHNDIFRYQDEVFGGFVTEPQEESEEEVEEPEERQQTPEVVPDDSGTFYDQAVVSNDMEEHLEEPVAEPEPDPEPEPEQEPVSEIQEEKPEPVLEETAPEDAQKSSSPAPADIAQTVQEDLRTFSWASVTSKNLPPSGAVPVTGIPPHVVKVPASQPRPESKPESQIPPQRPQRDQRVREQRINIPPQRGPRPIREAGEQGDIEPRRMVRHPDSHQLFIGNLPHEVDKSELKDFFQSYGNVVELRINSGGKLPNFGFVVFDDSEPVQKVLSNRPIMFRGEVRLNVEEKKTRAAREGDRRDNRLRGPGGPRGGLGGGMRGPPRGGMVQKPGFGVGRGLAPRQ
UniProt Q14157: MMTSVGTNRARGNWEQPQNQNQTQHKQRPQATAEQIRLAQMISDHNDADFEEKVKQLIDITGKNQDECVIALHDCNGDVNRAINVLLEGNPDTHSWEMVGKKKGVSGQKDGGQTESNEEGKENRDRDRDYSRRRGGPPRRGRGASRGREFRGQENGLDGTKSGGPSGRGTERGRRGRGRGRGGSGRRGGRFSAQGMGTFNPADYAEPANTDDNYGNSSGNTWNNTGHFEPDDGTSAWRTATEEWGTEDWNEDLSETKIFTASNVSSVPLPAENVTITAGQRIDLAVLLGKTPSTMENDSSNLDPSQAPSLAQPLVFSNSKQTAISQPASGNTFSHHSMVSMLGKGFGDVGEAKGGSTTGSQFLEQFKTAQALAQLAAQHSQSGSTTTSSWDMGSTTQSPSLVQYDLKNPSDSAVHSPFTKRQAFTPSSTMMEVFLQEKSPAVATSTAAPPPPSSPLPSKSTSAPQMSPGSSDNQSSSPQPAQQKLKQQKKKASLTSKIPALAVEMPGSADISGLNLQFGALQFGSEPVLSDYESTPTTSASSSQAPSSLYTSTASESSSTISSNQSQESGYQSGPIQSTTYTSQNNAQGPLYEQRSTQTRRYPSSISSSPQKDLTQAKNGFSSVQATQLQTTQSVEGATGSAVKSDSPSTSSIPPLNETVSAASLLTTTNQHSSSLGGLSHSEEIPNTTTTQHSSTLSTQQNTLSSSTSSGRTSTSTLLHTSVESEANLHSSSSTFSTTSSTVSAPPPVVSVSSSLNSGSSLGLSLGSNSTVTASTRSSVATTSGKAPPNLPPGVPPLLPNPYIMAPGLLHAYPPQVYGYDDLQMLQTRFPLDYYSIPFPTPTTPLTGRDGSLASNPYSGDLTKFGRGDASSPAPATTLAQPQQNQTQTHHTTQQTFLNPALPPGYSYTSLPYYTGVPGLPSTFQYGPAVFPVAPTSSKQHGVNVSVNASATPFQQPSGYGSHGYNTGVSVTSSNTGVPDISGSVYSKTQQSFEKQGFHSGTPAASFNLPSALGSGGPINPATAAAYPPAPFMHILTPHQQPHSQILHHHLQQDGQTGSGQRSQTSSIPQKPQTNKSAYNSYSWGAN

Assay [1] has as its target G3BP1 in the IP-WB of Figures S6A and S6E (human) (UniProt Q13283). In words: co-IP.
For assay [2], the target named is G3BP1 in the IP-WB of Figures S6A and S6E (human), Q13283. Kind of assay: co-IP. As to conditions: remark: other sources report otherwise.

Results are given in words; binding and its absence hold for the method and conditions named. In cells and extracts the contact can be indirect. Some entries that bind do so weakly or less than the wild type. Tags and fused reporters may be left off the sequences shown.

Take “UBAP2L, GFP or mCherry fusion expressed in cells (from UniProt Q14157 1-1087)”: the binding entry in assay [1] was “binds”.

B1: ATXN2, GFP or mCherry fusion expressed in cells, Q99700 1-1313 (protein)
chain: MRSAAAAPRSPAVATESRRFAAARWPGWRSLQRPARRSGRGGGGAAPGPYPSAAPPPPGPGPPPSRQSSPPSASDCFGSNGNGGGAFRPGSRRLLGLGGPPRPFVVLLLPLASPGAPPAAPTRASPLGARASPPRSGVSLARPAPGCPRPACEPVYGPLTMSLKPQQQQQQQQQQQQQQQQQQQQQQQPPPAAANVRKPGGSGLLASPAAAPSPSSSSVSSSSATAPSSVVAATSGGGRPGLGRGRNSNKGLPQSTISFDGIYANMRMVHILTSVVGSKCEVQVKNGGIYEGVFKTYSPKCDLVLDAAHEKSTESSSGPKREEIMESILFKCSDFVVVQFKDMDSSYAKRDAFTDSAISAKVNGEHKEKDLEPWDAGELTANEELEALENDVSNGWDPNDMFRYNEENYGVVSTYDSSLSSYTVPLERDNSEEFLKREARANQLAEEIESSAQYKARVALENDDRSEEEKYTAVQRNSSEREGHSINTRENKYIPPGQRNREVISWGSGRQNSPRMGQPGSGSMPSRSTSHTSDFNPNSGSDQRVVNGGVPWPSPCPSPSSRPPSRYQSGPNSLPPRAATPTRPPSRPPSRPSRPPSHPSAHGSPAPVSTMPKRMSSEGPPRMSPKAQRHPRNHRVSAGRGSISSGLEFVSHNPPSEAATPPVARTSPSGGTWSSVVSGVPRLSPKTHRPRSPRQNSIGNTPSGPVLASPQAGIIPTEAVAMPIPAASPTPASPASNRAVTPSSEAKDSRLQDQRQNSPAGNKENIKPNETSPSFSKAENKGISPVVSEHRKQIDDLKKFKNDFRLQPSSTSESMDQLLNKNREGEKSRDLIKDKIEPSAKDSFIENSSSNCTSGSSKPNSPSISPSILSNTEHKRGPEVTSQGVQTSSPACKQEKDDKEEKKDAAEQVRKSTLNPNAKEFNPRSFSQPKPSTTPTSPRPQAQPSPSMVGHQQPTPVYTQPVCFAPNMMYPVPVSPGVQPLYPIPMTPMPVNQAKTYRAVPNMPQQRQDQHHQSAMMHPASAAGPPIAATPPAYSTQYVAYSPQQFPNQPLVQHVPHYQSQHPHVYSPVIQGNARMMAPPTHAQPGLVSSSATQYGAHEQTHAMYACPKLPYNKETSPSFYFAISTGSLAQQYAHPNATLHPHTPHPQPSATPTGQQQSQHGGSHPAPSPVQHHQHQAAQALHLASPQQQSAIYHAGLAPTPPSMTPASNTQSPQNSFPAAQQTVFTIHPSHVQPAYTNPPHMAHVPQAHVQSGMVPSHPTAHAPMMLMTTQPPGGPQAALAQSALQPIPVSTTAHFPYMTHPSVQAHHQQQL
In the case of B1, the binding entry in assay [2] is listed as “no binding”.

B2: NUFIP2, GFP or mCherry fusion expressed in cells (protein, UniProt Q7Z417 1-695)
chain: MEEKPGQPQPQHHHSHHHPHHHPQQQQQQPHHHHHYYFYNHSHNHHHHHHHQQPHQYLQHGAEGSPKAQPKPLKHEQKHTLQQHQETPKKKTGYGELNGNAGEREISLKNLSSDEATNPISRVLNGNQQVVDTSLKQTVKANTFGKAGIKTKNFIQKNSMDKKNGKSYENKSGENQSVDKSDTIPIPNGVVTNNSGYITNGYMGKGADNDGSGSESGYTTPKKRKARRNSAKGCENLNIVQDKIMQQETSVPTLKQGLETFKPDYSEQKGNRVDGSKPIWKYETGPGGTSRGKPAVGDMLRKSSDSKPGVSSKKFDDRPKGKHASAVASKEDSWTLFKPPPVFPVDNSSAKIVPKISYASKVKENLNKTIQNSSVSPTSSSSSSSSTGETQTQSSSRLSQVPMSALKSVTSANFSNGPVLAGTDGNVYPPGGQPLLTTAANTLTPISSGTDSVLQDMSLTSAAVEQIKTSLFIYPSNMQTMLLSTAQVDLPSQTDQQNLGDIFQNQWGLSFINEPSAGPETVTGKSSEHKVMEVTFQGEYPATLVSQGAEIIPSGTEHPVFPKAYELEKRTSPQVLGSILKSGTTSESGALSLEPSHIGDLQKADTSSQGALVFLSKDYEIESQNPLASPTNTLLGSAKEQRYQRGLERNDSWGSFDLRAAIVYHTKEMESIWNLQKQDPKRIITYNEAMDSPDQ
On to B2, for which the binding entry in assay [1] is given as “binds”.
